Test results: patent publication US20120107601A1, “SYSTEMS AND METHODS OF TEMPLATING USING PARTICLES SUCH AS COLLOIDAL PARTICLES” (President and Fellows of Harvard College, priority 2009, published 2012)

Experimental: To ensure that the introduction of the hydrophobic compounds into the template structure would not lead to rearrangement of the particles in the 3D array, some of the templates were sintered prior to the introduction step. Sintering temperatures between 700 and 1200° C. were used to evaluate the conditions needed to form strong interparticle necks without distorting the initial packed structure. Sintering was accomplished under a O2 gas flow of 0.7 L/min (Thermo Scientific Lindberg Blue M Three-Zone Tube Furnace, Cole-Parmer, Vernon Hills, Ill., USA) applying a dwell time period of 2 hours. Introduction of the hydrophobic compounds into the interstices of the packed array of particles was accomplished by first placing the template on a hot plate at a predetermined temperature and afterwards depositing the powdery hydrophobic compound on the top of the heated template. The temperature of the hot plate was adjusted to enable melting of the hydrophobic compound on the template surface. Once in liquid form, the compound was sucked into the interstices of the template structure by capillary forces. […] After fluid introduction, the templates were removed from the hot plate and cooled in air at ambient temperature. The fluid-introduced templates were finally fractured to enable evaluation of the fluid-introduction efficiency in an electron microscope. […]

## C(=C\c1ccccc1)/CN1CCN(C(c2ccccc2)c2ccccc2)CC1 [cinnarizine]
  visible color change upon melting and infiltration into the composites: no visible color change
